Measurements published in PubChem BioAssay AID2685 (National Center for Advancing Translational Sciences (NCATS), 2010).
About 2,100 (0.66%) of roughly 320,000 compounds were called active. Calls follow the shape of the dose curve; as a rule, active = well fitted inhibition curve with a large enough effect in the signal ratio, with a control signal flat (not every such curve was filed as active); inconclusive = small, poorly fitted or top-dose-only effect, or effect the other way, or a change in a side signal; inactive = flat fitted curve, though single readings scatter; the % refers to the signal ratio. Inconclusive results, whose numbers are uncertain, are shown. Potencies beside an inconclusive call are fits to weak or partial responses and may not hold up.

Test: qHTS Assay for Lipid Storage Modulators in Drosophila S3 Cells
Conditions: BODIPY lipid droplet fluorescence, 18-24 h, cells fed with added oleic acid; lipid storage change, negative = inhibition: at 46.1 µM (top of the series) unless noted
Procedure, shortened: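 Laser-scanning cytometry quantifies lipid droplet accumulation (500–530 nm total intensity; droplet/cell object ratio) in oleic acid-fed (400 uM added) Drosophila S3 cells treated with a concentration series. 20 uM Triacsin C defined 100% inhibition.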
% is scaled to controls: 0 for no effect and ±100 for the full control effect; potency is read from the fitted curve at half-maximal effect.

Compound | lipid storage change, negative = inhibition | Potency
O=C(NCCc1ccccc1)Oc1ccc(Cl)cc1 | inconclusive: 9.56% | –
c1ccc(OCCOCCN2CCN(C(c3ccccc3)c3ccccc3)CC2)cc1 | – | inconclusive: 29.1 µM [cytotoxic, single point]
C=CCn1c(SCC(=O)NC2CC2)nnc1-c1ccccn1 | – | inconclusive: 13 µM [activator, partial curve]
COc1ccc(OC)c(S(=O)(=O)N2CCC3(CC2)CC(=O)c2ccccc2O3)c1 | inconclusive: 5.27% | –
CCOCCCNC(=O)CN1CCN(c2ccc(F)cc2)CC1 | inconclusive: 52.6% | –
COc1ccc(C(=O)COC(=O)c2cc3ccccc3oc2=O)c(OC)c1 | – | inconclusive: 0.92 µM [falling, full curve, poor fit]
O=S(=O)(NC1=NCCCCC1)c1cccs1 | inconclusive: -18.3% | –
Cc1cc(F)ccc1NC(=O)c1cc(S(=O)(=O)N2CCc3ccccc32)cn1C | – | inconclusive: 0.651 µM [activator, full curve, poor fit]
CCCCCOc1ccc(/C(C)=N/NC2=NCCN2)cc1 | inconclusive: 41.1% | –
c1ccc2c(c1)CCOC2CNCCCN1CCCCC1 (stereo unspecified) | inconclusive: 5.42% | –
CCCn1c(=O)c(C(=O)NCc2cccnc2)c(O)c2ccccc21 | – | inconclusive: 1.64 µM [rising, partial curve, poor fit]
Cc1c(C(=O)NCc2ccccn2)oc2ccc(Br)cc12 | inconclusive: 7.57% | –
CC12CC3(C)CC(C)(C1)CC(C(=O)NC(=S)NC(C)(C)C)(C2)C3 | – | inconclusive: 0.82 µM [activator, full curve, poor fit]
O=C(Nc1ccc2c(c1)OCO2)c1cccc(Cl)c1 | – | inconclusive: 20.6 µM [activator, single point]
Clc1ccccc1Cn1nnc2c(NCC3CC3)ncnc21 | inconclusive: 7.2% | –
C=CCCC(=O)N1CCCC(Cc2cccc(Cl)c2)(C(=O)OCC)C1 (stereo unspecified) | inconclusive: 188% | –
COc1ccc(C(C(=O)NC2CCCC2)N(C(=O)c2snc(C(N)=O)c2N)c2ccccc2OC)cc1OC (stereo unspecified) | – | inconclusive: 5.8 µM [falling, single point]
CC1CN(C(=S)Nc2ccc(Cl)cc2)CC(C)O1 (stereo unspecified) | inconclusive: 1.55% | –
CCN1C(=O)c2ccc(C(=O)Nc3nccs3)cc2C1=O | – | inconclusive: 16.4 µM [activator, partial curve]
CS(=O)(=O)N1CCN(c2ccccc2NC(=O)c2ccc(Br)o2)CC1 | inconclusive: -66.4% | –
Cc1cc(NC(=O)CS(=O)(=O)c2cn(C)c3ccccc23)no1 | inconclusive: 16.2% | –

Ordered by length of the SMILES (high to low): some entries from above.
Compound | lipid storage change, negative = inhibition | Potency
CC12CC3(C)CC(C)(C1)CC(C(=O)NC(=S)NC(C)(C)C)(C2)C3 | – | inconclusive: 0.82 µM [activator, full curve, poor fit]
CCOCCCNC(=O)CN1CCN(c2ccc(F)cc2)CC1 | inconclusive: 52.6% | –
CCCCCOc1ccc(/C(C)=N/NC2=NCCN2)cc1 | inconclusive: 41.1% | –
